Among all 200,000 compounds or so, about 25 (0.01%) were called active. Inconclusive means that the source gave no clear call. Such entries were picked first, then a sample of the others. Calls come from the whole dose curve; as a rule, active = well fitted inhibition curve with a large enough effect in the signal ratio, with a control signal flat (not every such curve was filed as active); inconclusive = small, poorly fitted or top-dose-only effect, or effect the other way, or a change in a side signal; inactive = flat fitted curve, though single readings scatter; the % refers to the signal ratio. Potencies of inconclusive entries are doubtful fits and often do not repeat.
assay: qHTS Assay for Modulators of Lamin A Splicing; settings: HeLa LMNA splicing GFP/RFP minigene ratio, 48 h; ratio change, negative = inhibition: at 46.1 µM (top of the series) unless noted
Outline: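 S3 HeLa cells stably expressing lamin A-EGFP splicing minigene plus DsRed2, 600 cells/well, 48 h compound exposure at 37C. Laser-scanning cytometry; analysed as GFP (500-530 nm)/RFP (575-640 nm) total intensity ratio; 0.5% DMSO vehicle.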
% is set by controls: 0 for no effect and ±100 for the full control effect; potency is the fitted concentration of half-maximal effect.

Structure (SMILES) | Potency | ratio change, negative = inhibition
COC(=O)c1c(-c2ccc(Cl)cc2)noc1N1CCN(c2cccc(C)c2C)CC1 | inconclusive: 11.2 µM [inhibitor, partial curve, poor fit] | –
COc1ccc(-n2c(O)c(C=Nc3ccccc3)c3ccccc3c2=O)cc1OC | – | inconclusive: 33.8% [at 46 µM]
CCCNC(=S)N1CCC(n2cnc3ccccc32)CC1 | – | inconclusive: -7.89% [at 46 µM]
CN1CCN(C(=O)C(=O)Nc2c3c(nn2-c2cccc(Cl)c2)CSC3)CC1 | – | inactive: 0.171% [at 46 µM]
COc1ccc(/C(N)=N/OC(=O)N2CCOCC2)cc1 | – | inconclusive: 81% [at 46 µM]
CCOc1ccc(C2=C(C(=O)CC)Sc3nncn3N2C(=O)CC)cc1 | inconclusive: 22.4 µM [inhibitor, partial curve, poor fit] | –
CCc1ccccc1N1C(=O)N(CC(=O)c2ccc(Cl)cc2)c2ccccc2S1(=O)=O | – | inactive: 4.54% [at 46 µM]
COc1cc(C)ccc1OCCOCCOc1cc(C)c(C)cc1Br | – | inconclusive: -50.5%
CCOC(=O)C(=O)CC(=O)c1ccc2c(c1)OCCO2 | – | inconclusive: 26.5% [at 46 µM]
C=CCn1c(Cc2cccs2)nnc1SCC(=O)c1ccc(F)cc1 | – | inconclusive: 4.79%
COC(=O)C(Cc1ccc(OC(=O)c2ccccc2Cl)cc1)N1Cc2ccccc2C1=O (stereo not given) | – | inconclusive: -10.5%
CC(C)=NNc1nc2c(c(=O)[nH]c(=O)n2C)n1CCc1ccccc1 | inconclusive: 17.8 µM [inhibitor, single point] | –
Cc1ccc(SCCC(=O)NCC2CCCO2)cc1 (stereo not given) | – | inactive: -13.1%
CCOc1cc(CNCCN(C)C)c(Cl)cc1OCC(=O)NCCc1ccccc1 | – | inconclusive: 9.25%
Cc1cc(C(=O)c2ccccc2)c(NC(=O)CCl)s1 | inconclusive: 14.1 µM [inhibitor, partial curve] | –
CC(C)c1ccc(NC(=O)c2ccc(F)c(S(=O)(=O)N3CCN(c4ccccc4F)CC3)c2)cc1 | – | inconclusive: -14.8% [at 46 µM]
CCCCCCCNC1=CC(=O)CC(c2ccco2)C1 (stereo not given) | – | inactive: 0.204%
COc1cc2c(C(=O)N3CCN(C4CCCCC4)CC3)cn(CC(C)C)c(=O)c2cc1OC | – | inactive: 1.78%
COc1ccc([N+](=O)[O-])cc1NC(=O)CSCc1ccc(Br)cc1 | – | inconclusive: -38.1%
O=C(Nc1ccc(F)cc1F)N1CCc2c(sc3c2CCCC3)C1c1ccc(F)cc1 (stereo not given) | – | inactive: 0.576% [at 46 µM]
CN1CCN(c2ccc(-c3ccc4ccccc4n3)cc2)CC1 | – | inconclusive: -23.6% [at 46 µM]
CC1CCN(c2c(NCc3ccc(C(=O)NCCc4ccc(Cl)cc4)cc3)c(=O)c2=O)CC1 | – | inactive: 11.6%
CCOCCc1nn2c(=O)cc(COC(=O)c3cccc(C)c3)nc2s1 | – | inactive: -5.23% [at 46 µM]
C[C@](N)(Cc1ccc(O)c(O)c1)C(=O)O | inconclusive: 35.5 µM [inhibitor, single point] | –
Cc1ccc(Cn2c(CN3CCC(C(=O)NCC(C)c4ccccc4)CC3)cc3ccccc32)cc1 (stereo not given) | – | inactive: -27.7% [at 46 µM]
O=C(Nc1ccc(NC(=S)NC(=O)c2ccccc2F)cc1)c1cccs1 | – | inconclusive: -27% [at 46 µM]
CCOc1ccc2nc(NC(=O)c3ccoc3C)sc2c1 | – | inconclusive: 13.9%

No new results follow: an excerpt of the list.
Structure (SMILES) | Potency | ratio change, negative = inhibition
CN1CCN(C(=O)C(=O)Nc2c3c(nn2-c2cccc(Cl)c2)CSC3)CC1 | – | inactive: 0.171% [at 46 µM]
COc1ccc(/C(N)=N/OC(=O)N2CCOCC2)cc1 | – | inconclusive: 81% [at 46 µM]
CCOc1ccc(C2=C(C(=O)CC)Sc3nncn3N2C(=O)CC)cc1 | inconclusive: 22.4 µM [inhibitor, partial curve, poor fit] | –
CCc1ccccc1N1C(=O)N(CC(=O)c2ccc(Cl)cc2)c2ccccc2S1(=O)=O | – | inactive: 4.54% [at 46 µM]
COc1cc(C)ccc1OCCOCCOc1cc(C)c(C)cc1Br | – | inconclusive: -50.5%
CCOC(=O)C(=O)CC(=O)c1ccc2c(c1)OCCO2 | – | inconclusive: 26.5% [at 46 µM]
C=CCn1c(Cc2cccs2)nnc1SCC(=O)c1ccc(F)cc1 | – | inconclusive: 4.79%
COC(=O)C(Cc1ccc(OC(=O)c2ccccc2Cl)cc1)N1Cc2ccccc2C1=O (stereo not given) | – | inconclusive: -10.5%
CC(C)=NNc1nc2c(c(=O)[nH]c(=O)n2C)n1CCc1ccccc1 | inconclusive: 17.8 µM [inhibitor, single point] | –
Cc1ccc(SCCC(=O)NCC2CCCO2)cc1 (stereo not given) | – | inactive: -13.1%
CCOc1cc(CNCCN(C)C)c(Cl)cc1OCC(=O)NCCc1ccccc1 | – | inconclusive: 9.25%
Cc1cc(C(=O)c2ccccc2)c(NC(=O)CCl)s1 | inconclusive: 14.1 µM [inhibitor, partial curve] | –
CC(C)c1ccc(NC(=O)c2ccc(F)c(S(=O)(=O)N3CCN(c4ccccc4F)CC3)c2)cc1 | – | inconclusive: -14.8% [at 46 µM]
CCCCCCCNC1=CC(=O)CC(c2ccco2)C1 (stereo not given) | – | inactive: 0.204%
COc1cc2c(C(=O)N3CCN(C4CCCCC4)CC3)cn(CC(C)C)c(=O)c2cc1OC | – | inactive: 1.78%
COc1ccc([N+](=O)[O-])cc1NC(=O)CSCc1ccc(Br)cc1 | – | inconclusive: -38.1%
O=C(Nc1ccc(F)cc1F)N1CCc2c(sc3c2CCCC3)C1c1ccc(F)cc1 (stereo not given) | – | inactive: 0.576% [at 46 µM]
CN1CCN(c2ccc(-c3ccc4ccccc4n3)cc2)CC1 | – | inconclusive: -23.6% [at 46 µM]
CC1CCN(c2c(NCc3ccc(C(=O)NCCc4ccc(Cl)cc4)cc3)c(=O)c2=O)CC1 | – | inactive: 11.6%
CCOCCc1nn2c(=O)cc(COC(=O)c3cccc(C)c3)nc2s1 | – | inactive: -5.23% [at 46 µM]
C[C@](N)(Cc1ccc(O)c(O)c1)C(=O)O | inconclusive: 35.5 µM [inhibitor, single point] | –
Cc1ccc(Cn2c(CN3CCC(C(=O)NCC(C)c4ccccc4)CC3)cc3ccccc32)cc1 (stereo not given) | – | inactive: -27.7% [at 46 µM]
O=C(Nc1ccc(NC(=S)NC(=O)c2ccccc2F)cc1)c1cccs1 | – | inconclusive: -27% [at 46 µM]

More compounds:

Structure (SMILES) | Potency | ratio change, negative = inhibition
CCOC(=O)C1=C(c2ccccc2)N(C)C(=O)NC1c1ccc(OC(F)F)c(OC)c1 (stereo not given) | – | inconclusive: 15.6%
Cc1ccc(NC(=O)CN(C)C(=S)NC2CC2)cc1 | – | inconclusive: -9.96% [at 46 µM]
COc1cccc(CNC(=O)c2ccc(CNS(=O)(=O)c3ccc(C)cc3)cc2)c1 | – | inconclusive: -29.4% [at 46 µM]
CNC(=S)N1N=C(c2ccc(Br)cc2)CC1c1ccc(Br)cc1 (stereo not given) | – | inconclusive: 1.07%
O=C(/C=C/c1ccco1)Nc1cccc(NC(=O)/C=C/c2ccco2)n1 | inconclusive: 35.5 µM [falling, single point] | –
CCOC(=O)C1=C(c2ccccc2)N=c2s/c(=C\c3ccc(O)cc3)c(=O)n2C1c1cccs1 (stereo not given) | – | inconclusive: 3.23%
CCOc1cc(/C=C2\SC(=S)N(Nc3ccccc3)C2=O)ccc1O | – | inactive: 2.35%
CCOc1ccc(C(=O)NCC(=O)N2CCC(C)CC2)cc1OCC | – | inconclusive: -12.4% [at 9.22 µM]
COc1ccc(C(=O)NNC(=O)c2ccc(S(=O)(=O)N3CC(C)OC(C)C3)cc2)cc1 (stereo not given) | – | inconclusive: 1.43% [at 46 µM]
CCc1c(C)[nH]n(-c2nc(-c3ccccc3)cs2)c1=O | – | inconclusive: 61.6% [at 46 µM]
Cc1cc(C)c2c(N)c(C(=O)c3cccc(Cl)c3)sc2n1 | – | inconclusive: -32.1%
O=C(Nc1ccnc(-c2ccncc2)n1)c1ccccc1Cl | inconclusive: 3.55 µM [activator, full curve, poor fit] | –
C=CCn1c(O)c(N=NC(=O)CNC(=O)c2ccco2)c2ccccc21 | inconclusive: 11.2 µM [falling, partial curve] | –
CCOc1ccc(N(C)S(=O)(=O)c2c(C(=O)N3CCC(C)CC3)c(C)n(C)c2C)cc1 | – | inactive: 23.6% [at 46 µM]
Cn1c(=O)c2c(ncn2CC(=O)OCC(=O)Nc2cccc(Cl)c2)n(C)c1=O | – | inconclusive: -16.4% [at 46 µM]
COC(=O)c1ccc2c(=O)[nH]c(CCl)nc2c1 | – | inconclusive: -21.1% [at 46 µM]
O=C(O)CCCCCN1C(=O)C(O)=C(C(=O)/C=C/c2ccccc2)C1c1ccc2c(c1)OCO2 (stereo not given) | – | inactive: 13.8% [at 46 µM]
COc1ccc(-c2nc3c(c4c2C[C@H](c2ccccc2)OC4)CN(C(=O)c2cc(I)ccc2F)CC3)c(C)c1 | – | inconclusive: -3.85% [at 9.22 µM]
COc1cc2c(cc1NC(=O)CSc1ccccn1)oc1ccccc12 | – | inconclusive: 33.9%
CCCN(CCC)CC(O)COc1ccc2c(c1)OCO2 (stereo not given) | – | inconclusive: 20.7% [at 46 µM]
O=C1C=C(Nc2ccc(O)cc2)CC(c2ccco2)C1 (stereo not given) | – | inconclusive: -33.1%
CS(=O)(=O)NCC(c1ccco1)N1CCN(c2ccc(F)cc2)CC1 (stereo not given) | – | inconclusive: 8.85% [at 46 µM]
COc1ccc(-n2c(C)cc(C(=O)COC(=O)Cc3n[nH]c(=O)c4ccccc34)c2C)cc1 | inconclusive: 35.5 µM [fluorescent, single point] | –
C=CCNC(=O)c1onc(CSc2cccc(Cl)c2)c1C(=O)O | – | inconclusive: 11.6% [at 0.0737 µM]
CCN1CCCc2cc(CN(CCN3CCOCC3)C(=S)Nc3ccccc3OC)ccc21 | inconclusive: 28.2 µM [inhibitor, partial curve] | –
CC(=O)N(C(C)=O)c1ncnc2c1c(-c1ccc(Cl)cc1)nn2C(C)(C)C | inconclusive: 35.5 µM [cytotoxic, single point] | –
C=CCn1c(=O)/c(=C/c2cc(OC)c(OC)c(OC)c2)s/c1=C(/C#N)c1nc2ccccc2n1C | – | inactive: -3.37%

Structure (SMILES) | Potency | ratio change, negative = inhibition
CCC1(C)Cc2c(sc3nnn(CC(=O)Nc4ccc(Cl)cc4)c(=O)c23)CO1 (stereo not given) | – | inconclusive: -9.87%
N#CCSc1nccc(-c2cc(Cl)sc2Cl)n1 | – | inconclusive: 23%
COc1ccc(S(=O)(=O)NCCS(=O)(=O)N2CCN(c3ccccc3)CC2)cc1OC | – | inactive: 7.32% [at 46 µM]
OC(c1ccccc1)c1nc2ccccc2s1 (stereo not given) | – | inactive: 4.86%
O=C(Cn1ncc2c1-c1ccccc1OC2)N1CCN(Cc2ccc3c(c2)OCO3)CC1 | – | inactive: -5.63%
CCn1c(O)c(C=Nc2ccccc2)sc1=O | – | inconclusive: 5.07% [at 46 µM]
CCN1CC(CN(C)Cc2nc(-c3cccs3)no2)CC1=O (stereo not given) | – | inactive: -4.29% [at 46 µM]
COc1ccc(Cn2c(SCc3cc(C)ccc3C)nc3cc(OC)c(OC)cc3c2=N)cc1 | inconclusive: 35.5 µM [cytotoxic, single point] | –
CN1CCc2c(sc(NC(=O)CSc3ccc(F)cc3)c2-c2nc3ccccc3s2)C1 | inconclusive: 3.55 µM [activator, full curve, poor fit] | –
S=C(NCC1CCCO1)N1CCN(c2nc(-c3ccc(Cl)cc3)cs2)CC1 (stereo not given) | – | inconclusive: 11.2% [at 46 µM]
O=C(CCCCCN1C(=O)c2ccccc2C1=O)Oc1ccc2c3c(c(=O)oc2c1)CCC3 | – | inconclusive: -22.3%
C1=Nc2ccccc2CN1c1ccccc1 | – | inactive: 6.02%
O=S(=O)(NCCSc1nnnn1-c1ccccc1)c1cccs1 | – | inactive: -8.24%
Cc1ccc(C(=O)N2CCN(S(=O)(=O)N3CCOCC3)CC2)cc1 | – | inconclusive: 3.88% [at 46 µM]
O=C1c2ccccc2C(=O)c2cc(S(=O)(=O)Nc3ccccc3)ccc21 | – | inconclusive: -42.9%
COc1ccc(S(=O)(=O)N2CN(Cc3ccco3)c3nc4ccccc4nc32)cc1 | – | inconclusive: 42.7%
COc1ccc2c(=O)c(Oc3ccc(C(=O)O)cc3)c(C(F)(F)F)oc2c1 | – | inconclusive: -18.5% [at 46 µM]
COc1ccc(NC(=O)CCCn2c(=O)c3sccc3n(Cc3ccccc3)c2=O)cc1 | – | inactive: -5.33%
CCOCCOC(=O)CCSc1n[nH]c(=O)[nH]c1=O | – | inactive: -2.96%
N#CC(C#N)=Cc1ccc(OC(=O)c2ccccn2)cc1 | – | inactive: -8.46%
O=C(C1CCN(C2CC(=O)N(Cc3ccccc3)C2=O)CC1)N1CCCCCC1 (stereo not given) | – | inactive: 11.9%
NC(CCC(=O)N[C@@H](CS)C(=O)NCC(=O)O)C(=O)O (stereo not given in full) | inconclusive: 14.1 µM [falling, single point] | –
Cc1ccc(/C=N\n2c(-c3ccccc3)n[nH]c2=S)s1 | – | inconclusive: 12.1% [at 0.0737 µM]
CN(C(=O)CSc1nc(C2CCCC2)nc2c1c(=O)n(C)c(=O)n2C)c1ccccc1 | – | inactive: -7.84% [at 46 µM]
CCOC(=O)N1CCN(c2cc(NCCC(=O)O)c3c4c(onc24)-c2ccccc2C3=O)CC1 | – | inactive: 1.39%
CCc1nnc(NC(=O)CSc2nnc(-c3ccccc3O)o2)s1 | inconclusive: 5.62 µM [inhibitor, partial curve, poor fit] | –

— PubChem BioAssay AID1487 (National Center for Advancing Translational Sciences (NCATS), 2009)
